Small-molecule microarray binding calls

Calls as published in the ROBIN set (doi:10.1002/anie.202211358).

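The test is a small-molecule microarray: each compound is printed twice on a reactive slide, and binding shows as fluorescence of the labelled oligonucleotide after washing. The data file lists only calls. An earlier report of the laboratory on the PreQ1, TPP and SAM-II riboswitches (doi:10.1038/s41467-019-09493-3) used 1 µM RNA for 2 h and required a mean Z-score above 3 (spot signal-to-noise against the whole library), a score well above that on a control array, and duplicate spots agreeing (coefficient of variation under 100); it then also set aside compounds that hit other targets, which this list keeps. The cut-offs behind this list may differ. These are primary screening calls, not affinities; a compound without a hit may have attached poorly or may still bind in solution.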 Key: yes = hit, no = tested without a hit. This is an unselected part of the compounds tested. A dash means that no call is listed here.

Targets, with sequences 5′ to 3′:
SAM-II: SAM-II riboswitch RNA pseudoknot, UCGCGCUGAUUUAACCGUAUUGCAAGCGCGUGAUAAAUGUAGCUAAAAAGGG. About 200 hits among about 21,000 compounds.
TPP: TPP riboswitch RNA three-way junction, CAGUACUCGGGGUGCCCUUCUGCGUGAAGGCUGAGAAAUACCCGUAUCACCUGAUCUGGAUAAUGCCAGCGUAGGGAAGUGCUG. About 160 hits among about 24,000 compounds.
PreQ1: PreQ1 riboswitch RNA pseudoknot, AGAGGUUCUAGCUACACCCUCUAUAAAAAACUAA. From B. subtilis. About 170 hits among about 24,000 compounds.

| structure | SAM-II | TPP | PreQ1 |
|---|---|---|---|
| `OC(COc1ccc2ccccc2c1Br)Cn1cnc2ccccc21` (stereo not shown) | no | no | no |
| `O=C(c1n[nH]c2ccccc12)N1CC[C@@H](c2ccc(F)cc2)[C@H](O)C1` | no | no | no |
| `COc1ccc(Nc2cc(Cl)ccc2C(=O)O)cn1` | no | no | no |
| `Cc1ccc(C(=O)Nc2ccccc2C(=O)NCCO)cc1` | no | no | no |
| `NC(=O)c1n[nH]c2c1CN(CC1(O)CNCCOC1)CC2` (stereo not shown) | no | no | no |
| `COc1nc2c(cc1C(=O)N[C@H]1Cc3ccccc3[C@@H]1N)CCC2` | no | no | no |
| `O=C(CCc1cc2n(n1)CCNC2)N(Cc1ccccn1)CC1CCCO1` (stereo not shown) | no | no | no |
| `Cc1nc(NCCc2ccccc2)c2c3c(sc2n1)CCCC3` | no | no | no |
| `CC(CCCC(C)(C)O)NC1Cc2ccccc2C1` (stereo not shown) | no | no | no |
| `Nc1nc(N2CCCCC2)nc(N(c2ccccc2)c2ccccc2)n1` | no | no | no |
| `Cc1nnc2sc(-c3cccc(N)c3)nn12` | no | no | no |
| `OC(CN1CCCCCC1)Cn1ccnc1-c1ccc(Cl)cc1` (stereo not shown) | no | no | no |
| `CCc1cc(C(N)=S)ccn1` | no | no | no |
| `COc1ccc(Cl)cc1-n1nc(CC(N)=O)nc1C1CCCNCC1` (stereo not shown) | no | no | no |
| `Cc1cc(NCCOCCO)n2nc(-c3cccc(Cl)c3)c(C)c2n1` | - | no | no |
| `CC(C)c1cc(NC2CC2)n2nc(-c3cccnc3)nc2n1` | - | no | no |
| `Cc1cc(C(=O)N2CCC3(CN(C)C(=O)O3)C2)cc2sc(N)nc12` (stereo not shown) | no | no | no |
| `Cc1ccc(NC(=O)[C@@H]2CNC[C@H](C(=O)NC3CCOCC3)C2)cn1` | no | no | no |
| `CN(C)c1ccc(C2Nc3ncnn3C(c3ccccc3)C2N)cc1` (stereo not shown) | no | no | no |
| `O=S(=O)(Nc1nc2ccccc2nc1NCCc1ccccc1)c1ccc(Cl)cc1` | no | no | no |
| `CCCOC(=O)c1c(N)sc2c1CCC2` | no | no | no |
| `NC(=O)c1cc2c(nc1N1CCN(Cc3ccccc3)CC(O)C1)CCC2` (stereo not shown) | no | no | no |
| `Cc1ccc(O)c(-c2nc3c(c(=O)[nH]2)Cc2c(CO)cnc(C)c2O3)c1` | no | no | no |
| `COc1cccc(-n2cc(CN(C)C(=O)c3ccnc(N)c3)cn2)c1` | no | no | no |
| `CCC(CC)c1ncc[nH]1` | no | no | no |
| `CCc1n(CC(O)COc2c(C)cccc2C)c2ccccc2[n+]1C` (stereo not shown) | no | no | no |
| `CC(O)CSc1nc2c(c(=O)n(C)c(=O)n2C)n1CCCc1ccccc1` (stereo not shown) | no | no | no |
| `Cc1nc2nc(-c3ccccc3Cl)nn2c(C)c1CC(=O)N(CCO)Cc1ccccc1` | - | no | no |
| `Cc1cccc(NC(=O)Cn2nnc(C(=O)NCc3ccccc3)c2N)c1` | no | no | no |
| `CN1C(=O)NC(c2ccc(Cl)cc2)C2=C1CN(CCO)C2=O` (stereo not shown) | no | no | no |
| `COc1ccc(C2c3c(-c4ccccc4O)n[nH]c3C(=O)N2CCO)cc1` (stereo not shown) | - | no | no |
| `O=C1OC(Nc2ccccc2F)c2ccccc21` (stereo not shown) | no | no | no |
| `Cc1cc(CN2CCC(C)CC2)c(C)c(C2NCCc3[nH]cnc32)c1` (stereo not shown) | no | no | no |
| `Fc1ccc(NC2CCOCC2)cc1` | no | no | no |
| `CCn1cnnc1C(C)N` (stereo not shown) | no | no | no |
| `CCOC(=O)c1cnc2c(C)cc(C)cc2c1NCc1ccccc1` | no | no | no |
| `CN(Cc1cnc(N)nc1)C(=O)Nc1ccccc1CN(C)C1CCCCC1` | no | no | no |
| `Nc1cc(C(F)(F)F)ccc1Oc1ccc2c(c1)OCO2` | no | no | no |
| `Cc1c(CN2CC[C@H]3CC[C@@H](C2)N3)c(=O)n(-c2ccccc2)n1C` | no | no | no |
| `C#CCOCC(O)CN1CCN(CC)CC1.Cl.Cl` (stereo not shown) | no | no | no |
| `Nc1ccc2ncc(=O)[nH]c2c1` | no | no | no |
| `COC(=O)c1ccccc1NC1=NS(=O)(=O)C(c2cccc(Br)c2)=C1C` | - | no | no |
| `NC(=O)Cc1nc(C2CNCC(=O)N2)n(-c2ccc(C(F)(F)F)cc2)n1` (stereo not shown) | no | no | no |
| `CNC(=O)[C@@H]1C[C@@H](N)CN1S(=O)(=O)c1ccc(-c2ccno2)s1` | no | no | no |
| `C#Cc1cccc(NC(=O)c2ccc(Cl)cc2Cl)c1` | no | no | no |
| `Cc1cccc(NC(c2ccc(F)cc2)c2nnc(-c3ccccc3)o2)c1` (stereo not shown) | no | no | no |
| `Cc1nc(C)c(CC(=O)N[C@H]2CC[C@H]2NC2CCOCC2)c(=O)[nH]1` | no | no | no |
| `CN(CCCc1cnn(C)c1)C(=O)[C@H]1CNC[C@@H](C(=O)N2CCOCC2)C1` | no | no | no |
| `CCCCSCc1cc(C(=O)N2CC[C@H]3CNC[C@H]32)oc1C` | no | no | no |
| `Cc1ccc(C(=O)C2=C(O)C(=O)N(CC(C)O)C2c2ccc(O)cc2)cc1` (stereo not shown) | no | no | no |

Some entries from above, unchanged:

| structure | SAM-II | TPP | PreQ1 |
|---|---|---|---|
| `Cc1nc2nc(-c3ccccc3Cl)nn2c(C)c1CC(=O)N(CCO)Cc1ccccc1` | - | no | no |
| `NC(=O)Cc1nc(C2CNCC(=O)N2)n(-c2ccc(C(F)(F)F)cc2)n1` (stereo not shown) | no | no | no |
| `C#CCOCC(O)CN1CCN(CC)CC1.Cl.Cl` (stereo not shown) | no | no | no |
| `OC(CN1CCCCCC1)Cn1ccnc1-c1ccc(Cl)cc1` (stereo not shown) | no | no | no |